In patent US8097269B2, “Bioactive material delivery systems comprising sol-gel compositions” (Celonova Biosciences, Inc., priority 2004, dated 2012):
For at least one compound, name, drawing or mass did not settle the structure.

Test: Cerivastatin elution from TEOS coated stents treated with chlorotrimethyl silane
Assay type: physicochemical
Settings: 10 μg cerivastatin in 0.5M TEOS plus 0.5M TEOS second layer; immersion in 1M chlorotrimethyl silane about ten or thirty minutes, versus untreated coated stents; longer exposure, greater effect; FIG. 8

COCc1c(C(C)C)nc(C(C)C)c(/C=C/[C@@H](O)C[C@@H](O)CC(=O)O)c1-c1ccc(F)cc1 [cerivastatin]
rate of elution of cerivastatin: reduced the rate of elution
